Measurements: patent publication US20200206266A1 (JULIUS MAXIMILIANS UNIVERSIT T W RZBURG, published 2020)

The chains behind the UniProt entries cited, without tags or fusion partners. Where a name states a change or a piece, a line headed by the entry shows the natural chain unless it says otherwise.
UniProt P36888: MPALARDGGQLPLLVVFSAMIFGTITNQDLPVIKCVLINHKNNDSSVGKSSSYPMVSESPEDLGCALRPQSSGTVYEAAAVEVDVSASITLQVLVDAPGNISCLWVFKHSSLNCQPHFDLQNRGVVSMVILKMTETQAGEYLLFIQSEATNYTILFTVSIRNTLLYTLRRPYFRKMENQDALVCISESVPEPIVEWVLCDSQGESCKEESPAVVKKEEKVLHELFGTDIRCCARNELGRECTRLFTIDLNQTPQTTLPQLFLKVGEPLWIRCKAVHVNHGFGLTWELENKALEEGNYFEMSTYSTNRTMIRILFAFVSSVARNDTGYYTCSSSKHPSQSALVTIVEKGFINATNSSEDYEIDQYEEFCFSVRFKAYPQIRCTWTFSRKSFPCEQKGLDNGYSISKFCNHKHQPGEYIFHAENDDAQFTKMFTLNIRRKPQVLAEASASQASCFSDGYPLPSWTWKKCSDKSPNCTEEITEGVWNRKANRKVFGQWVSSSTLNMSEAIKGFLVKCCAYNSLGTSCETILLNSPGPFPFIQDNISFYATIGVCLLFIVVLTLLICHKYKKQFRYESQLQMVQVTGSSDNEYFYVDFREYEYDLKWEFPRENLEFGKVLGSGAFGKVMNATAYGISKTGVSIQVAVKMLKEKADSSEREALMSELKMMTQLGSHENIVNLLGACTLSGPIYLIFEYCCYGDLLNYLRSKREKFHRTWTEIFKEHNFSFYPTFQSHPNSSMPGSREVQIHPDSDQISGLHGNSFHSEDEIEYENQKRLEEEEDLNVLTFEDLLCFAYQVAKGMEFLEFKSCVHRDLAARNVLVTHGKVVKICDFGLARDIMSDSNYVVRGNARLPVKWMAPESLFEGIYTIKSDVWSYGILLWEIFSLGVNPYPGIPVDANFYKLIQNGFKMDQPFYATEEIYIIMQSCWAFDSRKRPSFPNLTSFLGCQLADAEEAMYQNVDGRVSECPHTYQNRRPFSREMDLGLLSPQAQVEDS

Target: FLT3 with internal tandem duplication (FLT3-ITD) (human) (UniProt P36888)
Assay: flow cytometry, staining of MOLM-13 and MV4;11 cells (FLT3-ITD+)

B1: mouse-anti-human-FLT3 mAb (clone 4G8, BD Pharmagin, BD Biosciences) (antibody, V domains shown)
VH: QVQLQQPGAELVKPGASLKLSCKSSGYTFTSYWMHWVRQRPGHGLEWIGEIDPSDSYKDYNQKFKDKATLTVDRSSNTAYMHLSSLTSDDSAVYYCARAITTTPFDFWGQGTTLTVSS
VL: DIVLTQSPATLSVTPGDSVSLSCRASQSISNNLHWYQQKSHESPRLLIKYASQSISGIPSRFSGSGSGTDFTLSINSVETEDFGVYFCQQSNTWPYTFGGGTKLEIKR
notes: Bought, fluorochrome-conjugated mouse antibody, used with a mouse IgG1 isotype control; also called anti-FLT3 mAb (4G8); anti-FLT3 4G8 mAb
- binding: binds

No constants are given. Whether binding was seen depends on the method and setting. A result given as binding can be weak or reduced; the word gives no strength. Tags and fused reporters may be left off the sequences shown.
